From patent US20200078441A1 come the findings set out here.

Amino acid sequences for entries named in this document (tags omitted). A change or cut given only in a name is not applied to a line headed by its entry. Chains listed by the source or under a name are the forms on record and can include a tag or linker. Residues count along the entry.
UniProt P11940: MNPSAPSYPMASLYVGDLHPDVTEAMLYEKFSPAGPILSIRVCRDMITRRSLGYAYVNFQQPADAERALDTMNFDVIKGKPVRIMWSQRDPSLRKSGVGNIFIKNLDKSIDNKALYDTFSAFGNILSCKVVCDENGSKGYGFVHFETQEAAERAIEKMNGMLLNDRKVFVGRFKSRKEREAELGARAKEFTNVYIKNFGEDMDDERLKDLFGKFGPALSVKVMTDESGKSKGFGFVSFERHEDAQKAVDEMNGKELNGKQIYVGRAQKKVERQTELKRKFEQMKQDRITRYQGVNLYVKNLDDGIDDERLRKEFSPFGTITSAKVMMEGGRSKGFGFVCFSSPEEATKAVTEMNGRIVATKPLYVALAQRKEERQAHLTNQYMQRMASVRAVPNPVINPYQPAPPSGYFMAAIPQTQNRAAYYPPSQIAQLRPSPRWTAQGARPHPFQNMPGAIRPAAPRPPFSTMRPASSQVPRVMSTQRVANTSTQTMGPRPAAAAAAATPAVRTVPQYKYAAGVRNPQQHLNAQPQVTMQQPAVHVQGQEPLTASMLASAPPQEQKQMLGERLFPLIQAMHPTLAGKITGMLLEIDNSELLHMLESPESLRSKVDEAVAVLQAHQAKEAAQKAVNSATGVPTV
recombinant His-tagged AGO2 protein (human Argonaute 2, baculovirus-expressed) (Q9UKV8, form named): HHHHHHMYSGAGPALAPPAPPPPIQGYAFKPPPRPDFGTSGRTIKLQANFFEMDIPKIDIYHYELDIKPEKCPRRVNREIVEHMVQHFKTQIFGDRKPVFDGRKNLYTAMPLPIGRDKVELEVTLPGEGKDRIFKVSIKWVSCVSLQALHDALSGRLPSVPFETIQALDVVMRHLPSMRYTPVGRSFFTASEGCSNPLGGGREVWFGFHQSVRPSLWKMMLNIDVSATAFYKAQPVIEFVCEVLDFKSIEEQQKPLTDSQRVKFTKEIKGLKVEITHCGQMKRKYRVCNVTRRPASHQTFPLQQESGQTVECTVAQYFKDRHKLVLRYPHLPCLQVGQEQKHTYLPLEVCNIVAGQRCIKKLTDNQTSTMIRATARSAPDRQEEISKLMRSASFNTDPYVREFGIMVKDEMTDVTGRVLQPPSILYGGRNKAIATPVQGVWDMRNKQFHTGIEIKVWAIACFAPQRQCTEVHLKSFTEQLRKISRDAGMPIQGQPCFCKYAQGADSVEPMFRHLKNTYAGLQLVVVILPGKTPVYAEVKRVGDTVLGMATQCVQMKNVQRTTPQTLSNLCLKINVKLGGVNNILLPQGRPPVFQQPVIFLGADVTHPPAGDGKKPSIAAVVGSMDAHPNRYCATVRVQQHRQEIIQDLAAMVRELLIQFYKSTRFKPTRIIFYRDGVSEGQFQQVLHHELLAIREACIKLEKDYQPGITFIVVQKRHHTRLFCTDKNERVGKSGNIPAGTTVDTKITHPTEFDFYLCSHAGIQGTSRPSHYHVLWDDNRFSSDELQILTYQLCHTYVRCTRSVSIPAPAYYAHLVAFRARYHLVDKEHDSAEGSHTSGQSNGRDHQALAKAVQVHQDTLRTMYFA
UniProt O43347: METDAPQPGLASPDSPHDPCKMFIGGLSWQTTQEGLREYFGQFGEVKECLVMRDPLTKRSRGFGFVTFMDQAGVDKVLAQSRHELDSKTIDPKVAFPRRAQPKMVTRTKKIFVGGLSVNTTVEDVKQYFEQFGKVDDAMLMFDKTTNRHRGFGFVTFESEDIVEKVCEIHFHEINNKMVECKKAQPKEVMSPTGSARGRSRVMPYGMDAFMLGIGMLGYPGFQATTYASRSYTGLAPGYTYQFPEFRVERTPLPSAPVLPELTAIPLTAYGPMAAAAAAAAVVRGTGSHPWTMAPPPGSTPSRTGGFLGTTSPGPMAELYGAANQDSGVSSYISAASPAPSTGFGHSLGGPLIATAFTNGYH
UniProt Q14152, residues 2-1382: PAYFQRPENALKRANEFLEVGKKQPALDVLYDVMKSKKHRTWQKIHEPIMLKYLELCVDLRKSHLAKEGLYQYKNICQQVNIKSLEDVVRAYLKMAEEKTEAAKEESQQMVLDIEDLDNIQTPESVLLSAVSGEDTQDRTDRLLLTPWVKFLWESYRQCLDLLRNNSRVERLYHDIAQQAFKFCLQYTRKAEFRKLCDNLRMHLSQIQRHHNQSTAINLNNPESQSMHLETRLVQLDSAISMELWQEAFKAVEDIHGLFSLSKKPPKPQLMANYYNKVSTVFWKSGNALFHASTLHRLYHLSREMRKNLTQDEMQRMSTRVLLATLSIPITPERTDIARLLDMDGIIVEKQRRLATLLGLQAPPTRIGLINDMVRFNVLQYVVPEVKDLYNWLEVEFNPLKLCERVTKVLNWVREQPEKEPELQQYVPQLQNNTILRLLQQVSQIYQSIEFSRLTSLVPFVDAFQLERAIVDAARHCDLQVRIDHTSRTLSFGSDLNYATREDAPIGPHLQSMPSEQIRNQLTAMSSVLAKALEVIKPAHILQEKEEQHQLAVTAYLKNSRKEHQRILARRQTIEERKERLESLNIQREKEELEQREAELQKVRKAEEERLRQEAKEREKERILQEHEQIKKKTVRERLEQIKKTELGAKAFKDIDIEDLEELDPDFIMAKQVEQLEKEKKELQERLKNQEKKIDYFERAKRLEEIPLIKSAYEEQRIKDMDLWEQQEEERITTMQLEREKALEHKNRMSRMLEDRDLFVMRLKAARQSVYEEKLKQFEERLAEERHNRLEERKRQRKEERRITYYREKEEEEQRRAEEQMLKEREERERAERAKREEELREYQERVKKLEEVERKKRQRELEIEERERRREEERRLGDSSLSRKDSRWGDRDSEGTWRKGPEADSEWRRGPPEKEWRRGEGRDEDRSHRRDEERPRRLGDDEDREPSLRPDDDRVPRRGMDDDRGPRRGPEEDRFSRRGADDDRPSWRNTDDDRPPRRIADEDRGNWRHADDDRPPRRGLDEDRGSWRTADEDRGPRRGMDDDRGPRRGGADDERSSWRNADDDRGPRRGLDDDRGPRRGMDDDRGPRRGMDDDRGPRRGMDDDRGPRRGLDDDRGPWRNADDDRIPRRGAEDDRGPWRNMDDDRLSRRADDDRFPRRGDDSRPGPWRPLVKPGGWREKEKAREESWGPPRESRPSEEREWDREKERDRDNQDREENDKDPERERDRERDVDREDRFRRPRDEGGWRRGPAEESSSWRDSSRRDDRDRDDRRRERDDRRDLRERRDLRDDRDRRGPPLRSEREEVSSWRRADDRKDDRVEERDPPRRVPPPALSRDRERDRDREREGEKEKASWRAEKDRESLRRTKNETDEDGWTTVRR

Results are given in words; binding and its absence hold for the method and conditions named. For part of these data: In cells and extracts the contact can be indirect. Some binding calls cover weakened binding; strength is not graded here.

Assay [1] has as its target Polyadenylate-binding protein 1 (Homo sapiens) (UniProt P11940). Description: immunoprecipitation of FlagMSI1 from 05MG cells, hypoxia 0 or 24 h, immunoblot.
For assay [2], the target named is recombinant His-tagged AGO2 protein (human Argonaute 2, baculovirus-expressed) (human) (UniProt Q9UKV8). Description: in vitro binding assay with purified proteins.
The target is the same in assay [3]. In words: pull-down of recombinant MSI1 constructs with recombinant AGO2, IP:AGO2, IB:His-ab.
Assay [4] shares this target. In words: pull-down assay with recombinant MSI1 and AGO2 proteins.
For assay [5] the target is unchanged. In words: in vitro pull-down of purified His-AGO2 and Flag-MSI1 with anti-AGO2 antibody, immunoblot. (A western blot detects proteins with antibodies after separation by electrophoresis.)
The target is the same in assay [6]. Description: in vitro pull-down of purified His-AGO2 and Flag-MSI1 with anti-AGO2 antibody.
For assay [7], the target named is Flag-tagged wild-type MSI1 (MSI1-wt) stably expressed in 05MG cells (human) (UniProt O43347). In words: LC-MS/MS of the MSI1 immunoprecipitate from the cytosolic fraction of 05MG cells (normoxia or hypoxia).

Consider “Flag-tagged wild-type MSI1 (MSI1-wt) stably expressed in 05MG cells (from UniProt O43347 1-362)”, for which, in assay [1], the binding result is on record as “binds”.

“purified C-terminal domain of MSI1 (recombinant) (from UniProt O43347 187-362)”: the binding result in assay [2] and in assay [3] was “binds” in each case. Consider “recombinant Flag-tagged MSI1 protein (human Musashi-1, full-length, baculovirus-expressed) (from UniProt O43347 1-362)”, for which the binding entry in assay [4], in assay [5], in assay [3] and in assay [6] was “binds” in each case.

As to “Eukaryotic translation initiation factor 3 subunit A (from UniProt Q14152)”, the binding result in assay [7] is “binds”. On the same count and under the same terms, the entry for “Polyadenylate-binding protein 1 (from UniProt P11940)” is “binds”.
